These are yes or no findings as the source states them, for the method shown. In cells and extracts the contact can be indirect. Some binding calls cover weakened binding; strength is not graded here.

The target in assay [1] is T1, syndecan-4 (SDC4) (mouse (endogenous in NIH3T3 and C57BL/6J lung)) (UniProt O35988).
T1 sequence: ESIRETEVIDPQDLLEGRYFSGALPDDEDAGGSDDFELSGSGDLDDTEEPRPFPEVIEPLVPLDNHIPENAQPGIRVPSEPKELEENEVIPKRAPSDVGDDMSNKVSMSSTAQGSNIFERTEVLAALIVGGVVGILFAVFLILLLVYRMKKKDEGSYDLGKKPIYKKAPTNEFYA
Briefly: proximity ligation; Duolink PLA on NIH3T3 cells cultured on dECM-Nor or dECM-PF; antibodies against the extracellular domain of SDC4 (5G9), integrin-αv and integrin-β1; with Anti-SDC4_((93-121)) 500 ng/mL or SDC4_(87-131) 100 nM.

In assay [2] the target is T1, syndecan-4 (SDC4) (mouse (endogenous in NIH3T3 and C57BL/6J lung)). Kind of assay: proximity ligation; Duolink PLA on mouse lung tissue slices 21 days after BLM; antibodies against the extracellular domain of SDC4 (5G9) and integrin-αv; groups with SDC4 knockdown, SDC4_(87-131), C8 or Anti-SDC4_((93-121)) treatment.

B1: integrin-αv (receptor, UniProt P43406 31-1044)
chain: FNLDVESPAEYAGPEGSYFGFAVDFFEPSTSSRMFLLVGAPKANTTQPGIVEGGQVLKCECSSSRRCQPIEFDSTGNRDYAKDDPLEFKSHQWFGASVRSKQDKILACAPLYHWRTEMKQEREPVGTCFLQDGTKTVEYAPCRSKNIDADGQGFCQGGFSIDFTKADRVLLGGPGSFYWQGQLISDQVAEIISKYDPNVYSIKYNNQLATRTAQAIFDDSYLGYSVAVGDFNGDGIEDFVSGVPRAARTLGMVYIYDGKNMSSLHNFTGEQMAAYFGFSVAATDINGDDYADVFIGAPLFMDRGSDGKLQEVGQVSVSLQRAVGDFQTTKLNGFEVFARFGSAIAPLGDLDQDGFNDIAIAAPYGGEDKKGLVYIFNGRSTGLNSVPSQILEGQWAAQSMPPSFGYSMKGATDVDRNGYPDLVVGAFGVDRAVLYRARPVVTVNAGLEVYPSILNQDNKICPLPGTALKVSCFNVRFCLKADGKGTLPRKLHFQVELLLDKLKQKGAIRRALFLHNRSPVHSKTMTVFRGGQMQCEELVAYLRDESEFRDKLTPITIFMEYRLDQRTAADATGLQPILNQFTPANVSRQAHILLDCGEDNVCKPKLEVSVNSDQKKIYIGDDNPLTLTVKAQNQGEGAYEAELIVSIPPQADFIGVVRNNEALARLSCAFKTENQTRQVVCDLGNPMKAGTQLLAGLRFSVHQQSEMDTSVKFDLKIQSSNSFDNVSPVVSYKVDLAVLAAVEIRGVSSPDHIFLPIPNWEYKENPETEEDVGPIVQHIYELRNNGPSSFSKAILNLQWPYKYNNNTLLYILHYDIDGPMNCTADTEINPLRIKTPEKNDTAAAGQGERNHLITKRDLTLREGDVHTLGCGIAKCLQITCQVGRLDRGKSAILYVKSLLWTETFMNKENQNHSYSLKSSASFNIIEFPYKNLPIEDLFNSTLVTTNITWGIQPAPMPVPVWVIILAVLAGLLLLAVLVFVMYRMGFFKRVRPPQEEQEREQLQPHENGEGNSET
B1: the binding result in assay [1] and in assay [2] was “binds” each time.

The record behind these values is publication PMC12313019, “Fibrotic lung ECM upregulates SDC4/integrin-αvβ1 interaction and the interfering peptide SDC4_87-131 and its derivative peptides alleviate pulmonary fibrosis” (Regenerative Biomaterials, 2025).
